Changes are numbered by the printed parent chain. Names and notes keep the numbering of the source. No constants are given. Whether binding was seen depends on the method and setting. Some binding calls cover weakened binding; strength is not graded here.
B1: Rad54 (S. cerevisiae, wild type) (protein, UniProt P32863 1-898)
chain: MARRRLPDRPPNGIGAGERPRLVPRPINVQDSVNRLTKPFRVPYKNTHIPPAAGRIATGSDNIVGGRSLRKRSATVCYSGLDINADEAEYNSQDISFSQLTKRRKDALSAQRLAKDPTRLSHIQYTLRRSFTVPIKGYVQRHSLPLTLGMKKKITPEPRPLHDPTDEFAIVLYDPSVDGEMIVHDTSMDNKEEESKKMIKSTQEKDNINKEKNSQEERPTQRIGRHPALMTNGVRNKPLRELLGDSENSAENKKKFASVPVVIDPKLAKILRPHQVEGVRFLYRCVTGLVMKDYLEAEAFNTSSEDPLKSDEKALTESQKTEQNNRGAYGCIMADEMGLGKTLQCIALMWTLLRQGPQGKRLIDKCIIVCPSSLVNNWANELIKWLGPNTLTPLAVDGKKSSMGGGNTTVSQAIHAWAQAQGRNIVKPVLIISYETLRRNVDQLKNCNVGLMLADEGHRLKNGDSLTFTALDSISCPRRVILSGTPIQNDLSEYFALLSFSNPGLLGSRAEFRKNFENPILRGRDADATDKEITKGEAQLQKLSTIVSKFIIRRTNDILAKYLPCKYEHVIFVNLKPLQNELYNKLIKSREVKKVVKGVGGSQPLRAIGILKKLCNHPNLLNFEDEFDDEDDLELPDDYNMPGSKARDVQTKYSAKFSILERFLHKIKTESDDKIVLISNYTQTLDLIEKMCRYKHYSAVRLDGTMSINKRQKLVDRFNDPEGQEFIFLLSSKAGGCGINLIGANRLILMDPDWNPAADQQALARVWRDGQKKDCFIYRFISTGTIEEKIFQRQSMKMSLSSCVVDAKEDVERLFSSDNLRQLFQKNENTICETHETYHCKRCNAQGKQLKRAPAMLYGDATTWNHLNHDALEKTNDHLLKNEHHYNDISFAFQYISH
B2: Rad54-AA (Y494A, F495A) mutant protein (protein, UniProt P32863 1-898)
chain: B1 chain with Y494A, F495A
B3: pFF, oligopeptide derived from the Rad54 PIP box (peptide)
peptide: VILSGTPIQNDLSEYFALLSFSNP

By UniProt entry, the sequences of proteins in these tests, tags left out.
UniProt P15873: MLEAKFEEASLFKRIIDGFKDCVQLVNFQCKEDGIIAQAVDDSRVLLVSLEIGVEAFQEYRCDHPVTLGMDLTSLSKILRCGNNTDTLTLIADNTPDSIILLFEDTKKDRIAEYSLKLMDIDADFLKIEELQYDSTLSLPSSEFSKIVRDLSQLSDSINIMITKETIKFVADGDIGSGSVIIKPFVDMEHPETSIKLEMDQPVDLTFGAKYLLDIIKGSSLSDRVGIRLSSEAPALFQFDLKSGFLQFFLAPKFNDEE
UniProt P25454: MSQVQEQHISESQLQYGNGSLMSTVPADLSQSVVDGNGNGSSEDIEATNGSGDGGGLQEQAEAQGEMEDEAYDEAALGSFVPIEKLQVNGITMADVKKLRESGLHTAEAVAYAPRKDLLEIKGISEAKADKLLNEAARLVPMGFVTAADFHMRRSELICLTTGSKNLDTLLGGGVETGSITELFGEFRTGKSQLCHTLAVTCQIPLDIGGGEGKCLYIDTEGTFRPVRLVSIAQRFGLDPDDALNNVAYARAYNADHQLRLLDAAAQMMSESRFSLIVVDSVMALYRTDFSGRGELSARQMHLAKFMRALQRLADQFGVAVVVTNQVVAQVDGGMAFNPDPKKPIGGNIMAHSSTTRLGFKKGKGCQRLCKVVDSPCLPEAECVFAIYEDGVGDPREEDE

Assays:
[1] = biological target: T1, Rad54-AA (Y494A, F495A) mutant protein (S. cerevisiae) (UniProt P32863); assay: pull-down; 3 ug Rad51 incubated with 3 ug Rad54 or Rad54-AA in 30 ul buffer T (20 mM Tris-HCl pH 7.5, 150 mM KCl, 1 mM DTT, 0.5 mM EDTA, 0.01% NP40), 30 min at 4°C, then Ni-NTA agarose 30 min at 4°C; eluted with 5% SDS, 12% SDS-PAGE; both purified
T1 sequence: B1 chain with Y494A, F495A

[2] = biological target: T2, Rad54 (S. cerevisiae, wild type) (S. cerevisiae) (UniProt P32863); assay: as above
T2 sequence: B1 chain

[3] = biological target: proliferating cell nuclear antigen (PCNA) (UniProt P15873); assay: pull-down; Rad51 competition: 4 ug Rad51 pre-incubated with 3 ug Rad54 before the Affi-PCNA beads, or 4 or 15 ug Rad51 added to the Rad54-PCNA complex pre-assembled on Affi-PCNA beads; washing and SDS elution, Coomassie; both purified
[4] = biological target: proliferating cell nuclear antigen (PCNA) (UniProt P15873); assay: pull-down; PCNA immobilised on Affi-gel 15 beads (5 mg/ml, 5 ul); 3 ug Rad54 or Rad54-AA in 30 ul buffer K (10 mM Na2HPO4, 1.8 mM KH2PO4 pH 7.4, 100 mM or 200 mM KCl), 30 min on ice; SDS eluate on 12% SDS-PAGE, Coomassie or anti-Rad54 blot; both purified
[5] = biological target: proliferating cell nuclear antigen (PCNA) (UniProt P15873); assay: pull-down; peptide competition: Rad54 mixed with PCNA immobilised on Affi-beads in the presence of the peptide pFF or pAA, or without peptide; supernatant and eluate on 12% SDS-PAGE, Coomassie; both purified

Row | Molecule | binding [1] | binding [2] | binding [3] | binding [4] | binding [5]
1 | Rad51 (from UniProt P25454 1-400) | binds | binds |  |  | 
2 | B1 |  |  | binds | binds | binds
3 | B2 |  |  |  | binds | 
4 | B3 |  |  |  |  | binds
